Reference: the supplement of paper PMC7661543
The effect of the compound repeats well; differences between the knockouts mostly do not.

Tested on: HCC-38
Experiment: relative cell number vs DMSO control (72 h) (% of DMSO); higher = less growth inhibition (more cells)
Method: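 QMAP-Seq: a pool of 5 breast cancer cell lines (ZR-75-1, SKBR3, HCC-38, MDA-MB-231, BT-20), each carrying 12 doxycycline-inducible Cas9 sgRNA perturbations (11 knockouts plus non-targeting sgNT), was treated with compounds for 72 h at four 10-fold doses (10 nM-10 uM or 1 nM-1 uM range). Barcodes were amplified and sequenced, and cell number was interpolated from 293T spike-in standard curves. The result is expressed as % of the median of DMSO wells. Two biological replicates.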

CNC(=O)c1cc(Oc2ccc(NC(=O)Nc3ccc(Cl)c(C(F)(F)F)c3)c(F)c2)ccn1 [Regorafenib]
Details | relative cell number
sgRNA knockout: sgATF3, 10 nM | 112
sgRNA knockout: sgATF3, 100 nM | 127
sgRNA knockout: sgATF3, 1000 nM | 103
sgRNA knockout: sgATF3, 10000 nM | 61.9
sgRNA knockout: sgATF4, 10 nM | 119
sgRNA knockout: sgATF4, 100 nM | 117
sgRNA knockout: sgATF4, 1000 nM | 95
sgRNA knockout: sgATF4, 10000 nM | 64.3
sgRNA knockout: sgATF6, 10 nM | 124
sgRNA knockout: sgATF6, 100 nM | 117
sgRNA knockout: sgATF6, 1000 nM | 115
sgRNA knockout: sgATF6, 10000 nM | 63
sgRNA knockout: sgATG7, 10 nM | 117
sgRNA knockout: sgATG7, 100 nM | 110
sgRNA knockout: sgATG7, 1000 nM | 98.9
sgRNA knockout: sgATG7, 10000 nM | 64.4
sgRNA knockout: sgERN1, 10 nM | 118
sgRNA knockout: sgERN1, 100 nM | 110
sgRNA knockout: sgERN1, 1000 nM | 105
sgRNA knockout: sgERN1, 10000 nM | 54.96
sgRNA knockout: sgHSF1, 10 nM | 128
sgRNA knockout: sgHSF1, 100 nM | 115
sgRNA knockout: sgHSF1, 1000 nM | 114
sgRNA knockout: sgHSF1, 10000 nM | 62.98
sgRNA knockout: sgHSF2, 10 nM | 119
sgRNA knockout: sgHSF2, 100 nM | 113
sgRNA knockout: sgHSF2, 1000 nM | 115
sgRNA knockout: sgHSF2, 10000 nM | 65.1
sgRNA knockout: sgKEAP1, 10 nM | 125
sgRNA knockout: sgKEAP1, 100 nM | 116
sgRNA knockout: sgKEAP1, 1000 nM | 120
sgRNA knockout: sgKEAP1, 10000 nM | 50.1
sgRNA knockout: sgNFE2L2, 10 nM | 112.6
sgRNA knockout: sgNFE2L2, 100 nM | 123
sgRNA knockout: sgNFE2L2, 1000 nM | 98
sgRNA knockout: sgNFE2L2, 10000 nM | 61.4
sgRNA knockout: sgSLC35F2, 10 nM | 116
sgRNA knockout: sgSLC35F2, 100 nM | 112
sgRNA knockout: sgSLC35F2, 1000 nM | 93.8
sgRNA knockout: sgSLC35F2, 10000 nM | 64.3
sgRNA knockout: sgXBP1, 10 nM | 121
sgRNA knockout: sgXBP1, 100 nM | 116
sgRNA knockout: sgXBP1, 1000 nM | 100
sgRNA knockout: sgXBP1, 10000 nM | 65.2

COCC[n+]1c2c(n(Cc3cnccn3)c1C)C(=O)c1ccccc1C2=O [YM155]
Details | relative cell number
sgRNA knockout: sgATF3, 1 nM | 58.2
sgRNA knockout: sgATF3, 10 nM | 24.92
sgRNA knockout: sgATF3, 100 nM | 3.57
sgRNA knockout: sgATF3, 1000 nM | 4.25
sgRNA knockout: sgATF4, 1 nM | 48.1
sgRNA knockout: sgATF4, 10 nM | 25.5
sgRNA knockout: sgATF4, 100 nM | 4.161
sgRNA knockout: sgATF4, 1000 nM | 4.82
sgRNA knockout: sgATF6, 1 nM | 57.48
sgRNA knockout: sgATF6, 10 nM | 22.6
sgRNA knockout: sgATF6, 100 nM | 3.07
sgRNA knockout: sgATF6, 1000 nM | 6.2
sgRNA knockout: sgATG7, 1 nM | 53.9
sgRNA knockout: sgATG7, 10 nM | 22.5
sgRNA knockout: sgATG7, 100 nM | 3.37
sgRNA knockout: sgATG7, 1000 nM | 4.45
sgRNA knockout: sgERN1, 1 nM | 58.1
sgRNA knockout: sgERN1, 10 nM | 25.7
sgRNA knockout: sgERN1, 100 nM | 4.06
sgRNA knockout: sgERN1, 1000 nM | 4.59
sgRNA knockout: sgHSF1, 1 nM | 73.1
sgRNA knockout: sgHSF1, 10 nM | 29.1
sgRNA knockout: sgHSF1, 100 nM | 4.53
sgRNA knockout: sgHSF1, 1000 nM | 5.55
sgRNA knockout: sgHSF2, 1 nM | 55.1
sgRNA knockout: sgHSF2, 10 nM | 25.5
sgRNA knockout: sgHSF2, 100 nM | 5.15
sgRNA knockout: sgHSF2, 1000 nM | 4.9
sgRNA knockout: sgKEAP1, 1 nM | 70
sgRNA knockout: sgKEAP1, 10 nM | 32.4
sgRNA knockout: sgKEAP1, 100 nM | 6.54
sgRNA knockout: sgKEAP1, 1000 nM | 5.47
sgRNA knockout: sgNFE2L2, 1 nM | 48.4
sgRNA knockout: sgNFE2L2, 10 nM | 20.6
sgRNA knockout: sgNFE2L2, 100 nM | 3.9
sgRNA knockout: sgNFE2L2, 1000 nM | 4.58
sgRNA knockout: sgSLC35F2, 1 nM | 96.8
sgRNA knockout: sgSLC35F2, 10 nM | 59
sgRNA knockout: sgSLC35F2, 100 nM | 16.2
sgRNA knockout: sgSLC35F2, 1000 nM | 5.18
sgRNA knockout: sgXBP1, 1 nM | 51.7
sgRNA knockout: sgXBP1, 10 nM | 21.5
sgRNA knockout: sgXBP1, 100 nM | 4.37
sgRNA knockout: sgXBP1, 1000 nM | 5.44

CC[C@H](Nc1ncnc2[nH]cnc12)c1nc2cccc(F)c2c(=O)n1-c1ccccc1 [CAL101]
Details | relative cell number
sgRNA knockout: sgATF3, 10 nM | 98.6
sgRNA knockout: sgATF3, 100 nM | 85.9
sgRNA knockout: sgATF3, 1000 nM | 93.6
sgRNA knockout: sgATF3, 10000 nM | 83.9
sgRNA knockout: sgATF4, 10 nM | 92.8
sgRNA knockout: sgATF4, 100 nM | 88.5
sgRNA knockout: sgATF4, 1000 nM | 88.6
sgRNA knockout: sgATF4, 10000 nM | 75
sgRNA knockout: sgATF6, 10 nM | 108
sgRNA knockout: sgATF6, 100 nM | 85.5
sgRNA knockout: sgATF6, 1000 nM | 98.6
sgRNA knockout: sgATF6, 10000 nM | 93.8
sgRNA knockout: sgATG7, 10 nM | 83.5
sgRNA knockout: sgATG7, 100 nM | 102
sgRNA knockout: sgATG7, 1000 nM | 91.3
sgRNA knockout: sgATG7, 10000 nM | 84.1
sgRNA knockout: sgERN1, 10 nM | 88.3
sgRNA knockout: sgERN1, 100 nM | 92.7
sgRNA knockout: sgERN1, 1000 nM | 94.3
sgRNA knockout: sgERN1, 10000 nM | 80.5
sgRNA knockout: sgHSF1, 10 nM | 97.7
sgRNA knockout: sgHSF1, 100 nM | 72.2
sgRNA knockout: sgHSF1, 1000 nM | 99.2
sgRNA knockout: sgHSF1, 10000 nM | 115
sgRNA knockout: sgHSF2, 10 nM | 99.9
sgRNA knockout: sgHSF2, 100 nM | 94.7
sgRNA knockout: sgHSF2, 1000 nM | 95.62
sgRNA knockout: sgHSF2, 10000 nM | 105
sgRNA knockout: sgKEAP1, 10 nM | 96.3
sgRNA knockout: sgKEAP1, 100 nM | 88.5
sgRNA knockout: sgKEAP1, 1000 nM | 106
sgRNA knockout: sgKEAP1, 10000 nM | 94.5
sgRNA knockout: sgNFE2L2, 10 nM | 89
sgRNA knockout: sgNFE2L2, 100 nM | 91.1
sgRNA knockout: sgNFE2L2, 1000 nM | 87.3
sgRNA knockout: sgNFE2L2, 10000 nM | 81.1
sgRNA knockout: sgSLC35F2, 10 nM | 89
sgRNA knockout: sgSLC35F2, 100 nM | 100
sgRNA knockout: sgSLC35F2, 1000 nM | 93.9
sgRNA knockout: sgSLC35F2, 10000 nM | 84.2
sgRNA knockout: sgXBP1, 10 nM | 91
sgRNA knockout: sgXBP1, 100 nM | 91.9
sgRNA knockout: sgXBP1, 1000 nM | 96.7
sgRNA knockout: sgXBP1, 10000 nM | 94.6
